Here are results for 54 sequences from article PMC7819943, “Rice protein-binding microarrays: a tool to detect cis-acting elements near promoter regions in rice”.

Sequences of proteins named here, by UniProt entry; tags and fusion partners are left off.
UniProt Q0JBA9, entry or part of it: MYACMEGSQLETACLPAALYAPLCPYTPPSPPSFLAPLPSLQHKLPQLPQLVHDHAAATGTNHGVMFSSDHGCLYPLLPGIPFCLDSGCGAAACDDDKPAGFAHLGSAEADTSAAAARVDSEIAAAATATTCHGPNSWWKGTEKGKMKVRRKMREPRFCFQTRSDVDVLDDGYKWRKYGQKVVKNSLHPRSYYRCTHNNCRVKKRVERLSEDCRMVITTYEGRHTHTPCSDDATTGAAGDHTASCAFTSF

This is one part of the list.

This assay has as its target OsWRKY34 (Oryza sativa, UniProt Q0JBA9 1-250). Put plainly: protein-binding microarray (RPBM); PBS, 2% BSA, 51.3 ng/ul salmon testes DNA, 50 uM zinc acetate, 200 nM TF, 25 C, 1 h; high values mean tight binding. Particulars: protein: recombinant; tags: N-terminal polyhistidine and DsRed monomer fusion (pET32a); label: CyDye5-dUTP incorporated in the synthesized complementary strand; 3' TTTTT single-stranded linker to array surface; dsDNA, one strand shown. An outline of the steps:
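Using Ni–NTA, transcription factors fused N-terminally to polyhistidine and DsRed were purified after expression in E. coli BL21-CodonPlus. These were incubated at 200 nM with a blocked, double-stranded custom Agilent array for 1 h at 25 °C in a buffer containing 50 µM zinc acetate, and the array was washed. The binding signal is per-feature fluorescence intensity (arbitrary units) on an Axon 4000B scanner.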
Consider “AGGGGAGATAGGAAAATTGGATTCGGTGGGTTGAGGCAGTCGGAGTCACCTAGTGCAG”, for which the binding signal was 8190 fluorescence intensity (a.u.).
With “AACCCTTTAATTTGTTCTTTGCTTCTTTAATCGTTGTTGACGGAGTCACCTAGTGCAG” the figure was 13000 fluorescence intensity (a.u.); with “GCTCTATGTGCTGTCCATCTGCCTTTTATTAATTAGCATTCGGAGTCACCTAGTGCAG”, 12700 fluorescence intensity (a.u.); with “TATTGGTTAGCTTATTTTGCTTAAATGGCTGATCAGCCAACGGAGTCACCTAGTGCAG”, 8900 fluorescence intensity (a.u.).
Next, “TTGTTGGCAAGTTTCTTCCCTTGTCTCTCTCTTGTGAGACCGGAGTCACCTAGTGCAG”: 8700 fluorescence intensity (a.u.).
Regarding “TCCTACCAGCTTCTTCGGCTCTTCCCATAAACTGCAGAGTCGGAGTCACCTAGTGCAG”, the binding signal is 8720 fluorescence intensity (a.u.).
As to “CAGCCGTATTTCTACTAGTCCAGTCTTTTTCAGCAATAAACGGAGTCACCTAGTGCAG”, the binding signal was 8160 fluorescence intensity (a.u.).
“TTTCCACCACCACCACCACCGATCTCGCCGCTGTCCAACGCGGAGTCACCTAGTGCAG”: the binding signal is 8460 fluorescence intensity (a.u.).
For the sequence “TGATTATTGTATGCAAACCTATTCTGTCATCTGGTGAGATCGGAGTCACCTAGTGCAG”, the binding signal was 8530 fluorescence intensity (a.u.).
With “TTTACGTTTGCCTGCATCTTTCTGACCTGTATACTAATTTCGGAGTCACCTAGTGCAG” the figure was 13300 fluorescence intensity (a.u.); with “ATCCAACATTCCCACTATCAGATTCGATCATTTACTGTTGCGGAGTCACCTAGTGCAG”, 8480 fluorescence intensity (a.u.); with “TTCCCCTTCGCCAACTCAGCATAACCTTCTACCTCAACTACGGAGTCACCTAGTGCAG”, 8270 fluorescence intensity (a.u.).
As for “CACCGTCCACAGTCTCGTTCCCGCTCCACGCGCGCGCCGCCGGAGTCACCTAGTGCAG”, the binding signal was 9480 fluorescence intensity (a.u.).
On to “CATTGACATCTTATTTGGTTGTTTGCCGATCATATGCTCTCGGAGTCACCTAGTGCAG”, for which the binding signal was 9170 fluorescence intensity (a.u.).
Take “GTCGCGCGAGGCTGTACCACTACTTGTGTTTGTTTACTCACGGAGTCACCTAGTGCAG”: the binding signal was 8440 fluorescence intensity (a.u.).
Turning to “CACCCCTTGCTACTGCAGTATCAAATGCATCTCTATAATACGGAGTCACCTAGTGCAG”, the binding signal is 9670 fluorescence intensity (a.u.).
For “GCCCGCGTGGGGCCCACGTTGACTCAGCACAAACTGACTACGGAGTCACCTAGTGCAG”, the binding signal was 9410 fluorescence intensity (a.u.).
With “ACTGCCTCCCCTCGTCCGTCCCCAGTTCGTCACCCTTCATCGGAGTCACCTAGTGCAG” the figure was 9370 fluorescence intensity (a.u.); with “TTTATTGCAGTCTATTATCTATCTTTGTTTCAAATTATTACGGAGTCACCTAGTGCAG”, 8200 fluorescence intensity (a.u.).
As to “ATATTTTGTTTTGCTTTTCTCAGTTTGGGTCCTCTCTTCTCGGAGTCACCTAGTGCAG”, the binding signal is 8770 fluorescence intensity (a.u.).
For the sequence “AAGCCACACCCTTAAGGGTCTCTTTGAATCGCAGGGTTGACGGAGTCACCTAGTGCAG”, the binding signal was 8230 fluorescence intensity (a.u.).
Next, “CCCACGGTTTGTACCGCCGGTAAACGCCCTCGCGACCCTTCGGAGTCACCTAGTGCAG”: 8400 fluorescence intensity (a.u.); “GCGCTTCCGCCGTGCTTCCCCACTGCGGCGGCCGCCGCCACGGAGTCACCTAGTGCAG”: 9370 fluorescence intensity (a.u.); “ACGTTGTTTGTGTCACGCTTCTCAAATCCCTTGGTGTTCTCGGAGTCACCTAGTGCAG”: 11700 fluorescence intensity (a.u.).
For the sequence “CACCTGCCGCTGCTCCGACGGCCGCCTCGTCGTCGACTTCCGGAGTCACCTAGTGCAG”, the binding signal was 8130 fluorescence intensity (a.u.).
On to “AAATATTTGACCGTTCGTTTATTATTTTTATTTTTTTTACCGGAGTCACCTAGTGCAG”, for which the binding signal was 12200 fluorescence intensity (a.u.).
For the sequence “TTAGTAGTAGTAGCAGCACACAAGCATTTAATCTTCTTTTCGGAGTCACCTAGTGCAG”, the binding signal is 8560 fluorescence intensity (a.u.).
As for “CTTTCAGGCTTCATTCAGACTTCAGCTCAGTCATTCAGGCCGGAGTCACCTAGTGCAG”, the binding signal is 8850 fluorescence intensity (a.u.).
For the sequence “GCATATAAACTCTACTTCTCTCTGTTTGATATGTTGGTCACGGAGTCACCTAGTGCAG”, the binding signal is 9290 fluorescence intensity (a.u.).
Turning to “GGGGATTGGGAGTTTATACAAGGGAATTGATGGTGAGATTCGGAGTCACCTAGTGCAG”, the binding signal is 8440 fluorescence intensity (a.u.).
Regarding “AAGCATACATCGATGTCCTCAATCTTGACTGTCTTCATCACGGAGTCACCTAGTGCAG”, the binding signal is 12000 fluorescence intensity (a.u.).
For “TGTGGTATATTTTCTGTGGCCCTGAAAATATTTGGTTCAACGGAGTCACCTAGTGCAG”, the binding signal was 8500 fluorescence intensity (a.u.).
Next, “AATATGGTGCCAATTTTTTTTTTCGGTTTTGCTACTTCACCGGAGTCACCTAGTGCAG”: 11900 fluorescence intensity (a.u.); “AGATTGGGTTTGGGTGGTGTGAGGATTGATTTGTTTTTTTCGGAGTCACCTAGTGCAG”: 17800 fluorescence intensity (a.u.).
“CCCTAGTGGGTAGGATTTGGGCGGGCGACGACGGGCATGGCGGAGTCACCTAGTGCAG”: the binding signal was 8240 fluorescence intensity (a.u.).
“GGCGGTGGCGGTGGAGGCGGCGGCGGCTATCGTGGGGATGCGGAGTCACCTAGTGCAG”: the binding signal is 8280 fluorescence intensity (a.u.).
As to “TTTTACACATATTCCATCTTCGCTCTTTTGTTCTGGGAAACGGAGTCACCTAGTGCAG”, the binding signal is 10500 fluorescence intensity (a.u.).
Next, “GGCGAATCTTGCAGTCTCATTTTCTACCAGTCCTGGTTTGCGGAGTCACCTAGTGCAG”: 8350 fluorescence intensity (a.u.).
Next, “TAATTTGATGTGGTATGTGTTAGTTTATTTTTCATCAAAACGGAGTCACCTAGTGCAG”: 12200 fluorescence intensity (a.u.); “TCCCGGCGCCAGATCTGCTTCTCATCTCCACAAGGACACCCGGAGTCACCTAGTGCAG”: 8970 fluorescence intensity (a.u.); “TATGGGTAGGTTCTTGTTCTATGGGGCAGGGGTCTTAAAGCGGAGTCACCTAGTGCAG”: 17100 fluorescence intensity (a.u.).
On to “TGCTGTGTGTTTGTGTTTCGACTGGTTAGACCAGCATGTTCGGAGTCACCTAGTGCAG”, for which the binding signal was 9090 fluorescence intensity (a.u.).
As to “TTTTTTGTTCTTCCTCGAACTCGAAGAACGCACACCGTCTCGGAGTCACCTAGTGCAG”, the binding signal is 9020 fluorescence intensity (a.u.).
With “GACGGCCTGACCCCACCATTCTTCTTCTCCAAGCAACCGTCGGAGTCACCTAGTGCAG” the figure was 8180 fluorescence intensity (a.u.); with “CTCACCTAACACACATGCACAGACGATCTCATGACATTAACGGAGTCACCTAGTGCAG”, 8320 fluorescence intensity (a.u.); with “GATCTGGGTATCTTTCCGTCAATCAAATTGCCACTTAAATCGGAGTCACCTAGTGCAG”, 8480 fluorescence intensity (a.u.).
With “GGGGTTGGTGGACGACTATCCAGTCGTGACTCGTAAGGGCCGGAGTCACCTAGTGCAG” the figure was 9840 fluorescence intensity (a.u.).
“AAGCAAAACGAGTCTCCATCTCCACAGTGGGCGTAGCTTTCGGAGTCACCTAGTGCAG”: the binding signal is 8380 fluorescence intensity (a.u.).
Consider “CTATCGTCGTCGTCGTCATCATCATCTTTTTTCTATTGTTCGGAGTCACCTAGTGCAG”, for which the binding signal was 8830 fluorescence intensity (a.u.).
Consider “TCATCTATTCTCTTCCTTCTTTTCTGTTCTGCATTTCTGTCGGAGTCACCTAGTGCAG”, for which the binding signal was 12400 fluorescence intensity (a.u.).
For “TTCCCCATCCGAGCCTTGAGCTCTTCTTCTTCTCTCTCTCCGGAGTCACCTAGTGCAG”, the binding signal is 9300 fluorescence intensity (a.u.).
For the sequence “GTTACTTGTTCGTCTCAACCATCCTTATTTTAACATGATACGGAGTCACCTAGTGCAG”, the binding signal was 10400 fluorescence intensity (a.u.).
In the case of “ATCGCAAGCACTGAAGCACCCACACACCCTACCTCCACACCGGAGTCACCTAGTGCAG”, the binding signal was 8310 fluorescence intensity (a.u.).
Turning to “ACACGTTCCCGCGCCCATTTTTCTTTACATTATCCTCGGACGGAGTCACCTAGTGCAG”, the binding signal is 10700 fluorescence intensity (a.u.).
